Data taken from patent US20030170246A1.
These are yes or no findings as the source states them, for the method shown. For some of these results: Binding seen in cells or lysates may run through a third protein. Some entries that bind do so weakly or less than the wild type.

How the values were obtained:
Lipophilin B (human) [1] = biological target: T1, Lipophilin B (human) (UniProt O95969); test: co-purification and SDS-PAGE
T1 sequence: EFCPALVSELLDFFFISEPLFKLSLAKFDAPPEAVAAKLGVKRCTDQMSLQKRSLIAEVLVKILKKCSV

Lipophilin B (human) [2] = biological target: T1, Lipophilin B (human); test: SDS-PAGE, non-reducing vs 10 mM DTT
Lipophilin B (human) [3] = biological target: T1, Lipophilin B (human); test: SDS-PAGE with and without DTT, N-terminal sequencing of bands
Lipophilin B (human) [4] = biological target: T1, Lipophilin B (human); test: co-purification, non-reducing SDS-PAGE, N-terminal sequencing; broken by 10 mM dithiothreitol

Measured: binding

B1: Mammaglobin (protein)
chain: SGCPLLENVISKTINPQVSKTEYKELLQEFIDDNATTNAIDELKECFLNQTDETLSNVEVFMQLIYDSSLCDLF
modifications: glycosylated (native protein from MDA-MB-415 cells)
binds: all assays above
